PubChem BioAssay AID248 (DTP/NCI, 2004)
The list does not hold the whole screen: it is rich in T/C values a quarter to a half above the control, in often repeated tests (any T/C) and in doses without a T/C. Further doses and runs are listed elsewhere. T/C gives the treated animals as a percentage of the vehicle group. Some doses have a count of surviving animals in place of a T/C: the source files T/C as zero there, which appears to mark a toxic dose or a test without result, not a measured value. Some doses without a T/C left all or most animals alive at the check, yet need not have been tolerated: survival well below the control is almost never listed, so the zero probably covers shortened survival too. Counts of survivors are from the toxicity check (mostly the fifth day) where no day follows; animals may have died later. Schedules are NCI's codes, read here as Q, the interval in days (D) or hours (H), X, the number of doses. Some schedule codes hold Z or #, which are not explained here. For survival time, this PubChem deposit counts one and a half times the control or more as active, and values a quarter to a half above the control carry no call in these data; other NCI protocols may use other cut-offs.

Tested on: L1210 leukemia ip in BDF1 mice, survival T/C
Experiment: NCI In Vivo Anticancer Drug Screen. Data for tumor model L1210 Leukemia (intraperitoneal) in B6D2F1 (BDF1) mice
Conditions: T/C endpoint: mean survival time, higher T/C = longer survival
[1] = dose: 300.0 mg/kg/injection, schedule: Q01DX001 (ip), vehicle: saline
[2] = dose: 400.0 mg/kg/injection, schedule: Q01DX009 (ip), vehicle: saline with Tween-80
[3] = dose: 200.0 mg/kg/injection, schedule: Q01DX009 (ip), vehicle: saline with Tween-80
[4] = dose: 200.0 mg/kg/injection, schedule: Q01DX001 (ip), vehicle: saline
[5] = dose: 400.0 mg/kg/injection, schedule: Q01DX001 (ip), vehicle: saline
[6] = dose: 200.0 mg/kg/injection, schedule: Q04DX003 (ip), vehicle: Klucel (hydroxypropylcellulose) (HPC)
[7] = dose: 400.0 mg/kg/injection, schedule: Q04DX003 (ip), vehicle: Klucel (hydroxypropylcellulose) (HPC)
[8] = dose: 400.0 mg/kg/injection, schedule: Q04DX003 (ip), vehicle: saline with Tween-80
[9] = dose: 50.0 mg/kg/injection, schedule: Q01DX009 (ip), vehicle: other

For `O=C(CCC(C(=O)c1ccccc1)c1ccccc1)c1ccc(-c2ccccc2)cc1` (centres undefined), the survivor count (dose: 175.0 mg/kg/injection, schedule: Q01DX009 (ip), vehicle: Klucel (hydroxypropylcellulose) (HPC)) was 6 of 6 and the survivor count (dose: 350.0 mg/kg/injection, schedule: Q01DX009 (ip), vehicle: Klucel (hydroxypropylcellulose) (HPC)) was 5 of 6.

In the case of `C[n+]1cccc(C#N)c1`, the survivor count [1] is reported as 3 of 6.

In the case of `C=CCc1ccccc1OC`, the survivor count [2] is reported as 1 of 6.

`O=C(Cn1cnc2c(=S)nc[nH]c21)Oc1ccc([N+](=O)[O-])cc1` was tested, and the survivor count [3] was 5 of 6 and the survivor count [2] was 0 of 6.

With `Cc1cccc(C(=O)[O][Pb]([CH3])([CH3])[CH3])c1` the survivor count (dose: 25.0 mg/kg/injection, schedule: Q04DX002 (ip), vehicle: Klucel (hydroxypropylcellulose) (HPC)) was 2 of 3, the survivor count (dose: 50.0 mg/kg/injection, schedule: Q04DX002 (ip), vehicle: Klucel (hydroxypropylcellulose) (HPC)) was 0 of 3 and the survivor count (dose: 100.0 mg/kg/injection, schedule: Q04DX002 (ip), vehicle: Klucel (hydroxypropylcellulose) (HPC)) was 0 of 3. The survivor count (dose: 200.0 mg/kg/injection, schedule: Q04DX002 (ip), vehicle: Klucel (hydroxypropylcellulose) (HPC)) was 0 of 3 and the survivor count (dose: 400.0 mg/kg/injection, schedule: Q04DX002 (ip), vehicle: Klucel (hydroxypropylcellulose) (HPC)) was 0 of 3.

In the case of `COC1C=CC23c4cc5c(cc4C(O)OC2CN(C)C3C1)OCO5` (centres undefined), the survivor count [4] is reported as 0 of 6 and the survivor count [5] is reported as 0 of 6.

With `CC(C)=CCC(N)C(C)c1ccccc1` (centres undefined) the survivor count (dose: 100.0 mg/kg/injection, schedule: Q01DX009 (ip), vehicle: Klucel (hydroxypropylcellulose) (HPC)) was 0 of 6, the survivor count (dose: 200.0 mg/kg/injection, schedule: Q01DX009 (ip), vehicle: Klucel (hydroxypropylcellulose) (HPC)) was 0 of 6 and the survivor count (dose: 400.0 mg/kg/injection, schedule: Q01DX009 (ip), vehicle: Klucel (hydroxypropylcellulose) (HPC)) was 0 of 6.

For `CN(CCc1ccccc1)/N=N/c1[nH]ncc1C(N)=O`, the T/C (dose: 177.0 mg/kg/injection, schedule: Q01DX009 (ip), vehicle: Klucel (hydroxypropylcellulose) (HPC)) was 143 % of control, the T/C (dose: 266.0 mg/kg/injection, schedule: Q01DX009 (ip), vehicle: Klucel (hydroxypropylcellulose) (HPC)) was 148 % of control and the T/C (dose: 400.0 mg/kg/injection, schedule: Q01DX009 (ip), vehicle: Klucel (hydroxypropylcellulose) (HPC), evaluated on day 20) was 135 % of control. The T/C (dose: 400.0 mg/kg/injection, schedule: Q01DX009 (ip), vehicle: Klucel (hydroxypropylcellulose) (HPC), evaluated on day 30) was 134 % of control.

`O=C(O)c1cc(O)c(Br)c(O)c1` was tested, and the survivor count (dose: 300.0 mg/kg/injection, schedule: Q01DX009 (ip), vehicle: other) was 6 of 6.

`Oc1ccccc1Sc1ccccc1O` was tested, and the survivor count [4] was 4 of 4.

`O=C(CCCCC(=O)Nc1ccc(C(=O)Nc2cc(C3=NCCN3)cc(C3=NCCN3)c2)cc1)Nc1ccc(C(=O)Nc2cc(C3=NCCN3)cc(C3=NCCN3)c2)cc1` was tested, and the survivor count (dose: 80.0 mg/kg/injection, schedule: Q01DX Z (ip), vehicle: saline) was 2 of 6.

`CCc1cccc(CC)c1NC(=O)CCl` was tested, and the survivor count [6] was 5 of 6.

In the case of `COc1ccc(CNCCNCc2ccc(OC)cc2)cc1`, the survivor count [7] is reported as 0 of 6.

For `C=CCCCCCCCCC(=O)NC[n+]1cccc(O)c1`, the survivor count (dose: 200.0 mg/kg/injection, schedule: Q04DX003 (ip), vehicle: saline with Tween-80) was 6 of 6 and the survivor count [8] was 0 of 6.

For `CC(C)/C=N/N=C(N)N`, the survivor count (dose: 480.0 mg/kg/injection, schedule: Q01DX Z (oral), vehicle: saline) was 3 of 6 and the survivor count (dose: 960.0 mg/kg/injection, schedule: Q01DX Z (oral), vehicle: saline) was 2 of 6.

In the case of `c1ccc(N=N/C(=N/Nc2ccccc2)c2ccccc2)cc1`, the survivor count (dose: 25.0 mg/kg/injection, schedule: Q01DX009 (ip), vehicle: saline with Tween-80) is reported as 6 of 6, the survivor count (dose: 100.0 mg/kg/injection, schedule: Q01DX009 (ip), vehicle: saline with Tween-80) is reported as 0 of 6 and the survivor count [3] is reported as 3 of 6. For the same compound, the survivor count [2] was 0 of 6.

With `COC(=O)C12C(=CCP1(C)=O)C(c1ccccc1)=NN2c1ccccc1` (centres undefined) the survivor count (dose: 50.0 mg/kg/injection, schedule: Q04DX002 (ip), vehicle: saline with Tween-80) was 3 of 3.

In the case of `CCOC(=O)Nc1cc2[nH]cnc2c(NC(=O)OCC)n1`, the survivor count (dose: 75.0 mg/kg/injection, schedule: Q01DX001 (ip), vehicle: saline) is reported as 6 of 6, the survivor count (dose: 150.0 mg/kg/injection, schedule: Q01DX001 (ip), vehicle: saline) is reported as 6 of 6 and the survivor count [1] is reported as 6 of 6.

`CCCCC#CC(=O)OCCCCC` was tested, and the survivor count [2] was 0 of 6.

For `[Cl][Hg][CH2]C1COC([CH2][Hg][Cl])CO1` (centres undefined), the survivor count (dose: 100.0 mg/kg/injection, schedule: Q01DX001 (ip), vehicle: carboxymethylcellulose (CMC)) was 2 of 6, the survivor count (dose: 200.0 mg/kg/injection, schedule: Q01DX001 (ip), vehicle: carboxymethylcellulose (CMC)) was 1 of 6 and the survivor count (dose: 400.0 mg/kg/injection, schedule: Q01DX001 (ip), vehicle: carboxymethylcellulose (CMC)) was 0 of 6.

For `COc1ccc(-n2c(C)csc2=S)cc1`, the survivor count [8] was 0 of 6.

For `O=C(O)c1ccc2ccccc2n1.[Cu+2]`, the survivor count [4] was 1 of 6 and the survivor count [5] was 0 of 6.

`FC(F)(F)c1nc2nc(Cl)c(Cl)nc2[nH]1` was tested, and the T/C [9] was 128 % of control, the survivor count [9] was 4 of 6 and the T/C (dose: 66.0 mg/kg/injection, schedule: Q04DX003 (ip), vehicle: other) was 149 % of control. For the same compound, the T/C (dose: 66.0 mg/kg/injection, schedule: Q04DX003 (ip), vehicle: saline with Tween-80) was 129 % of control, the survivor count (dose: 75.0 mg/kg/injection, schedule: Q01DX009 (ip), vehicle: other) was 1 of 6 and the survivor count (dose: 100.0 mg/kg/injection, schedule: Q01DX009 (ip), vehicle: other) was 1 of 6. The survivor count (dose: 150.0 mg/kg/injection, schedule: Q04DX003 (ip), vehicle: other) was 3 of 6, the survivor count (dose: 150.0 mg/kg/injection, schedule: Q04DX003 (ip), vehicle: saline sonified) was 3 of 6 and the survivor count (dose: 150.0 mg/kg/injection, schedule: Q04DX003 (ip), vehicle: saline with Tween-80) was 0 of 6. For the same compound, the survivor count (dose: 200.0 mg/kg/injection, schedule: Q01DX001 (ip), vehicle: saline with Tween-80) was 1 of 6, the survivor count [6] was 1 of 6 and the survivor count [7] was 0 of 6.

For `O=S1(=O)CCCCC1c1ccccc1` (centres undefined), the survivor count (dose: 400.0 mg/kg/injection, schedule: Q01DX009 (ip), vehicle: saline) was 6 of 6.

`O=[N+]([O-])c1ccc(-[n+]2ccccc2)c([N+](=O)[O-])c1` was tested, and the survivor count (dose: 225.0 mg/kg/injection, schedule: Q01DX009 (ip), vehicle: saline) was 2 of 6 and the survivor count (dose: 335.0 mg/kg/injection, schedule: Q01DX009 (ip), vehicle: saline) was 0 of 6.

In the case of `CC1=CC2CCC1C2` (centres undefined), the survivor count (dose: 300.0 mg/kg/injection, schedule: Q01DX001 (ip), vehicle: acetone) is reported as 4 of 6.

For `O=NN(C(=O)NC1CCCCC1)C1CCCCC1`, the survivor count (dose: 600.0 mg/kg/injection, schedule: Q01DX001 (ip), vehicle: carboxymethylcellulose (CMC)) was 3 of 6, the survivor count (dose: 800.0 mg/kg/injection, schedule: Q01DX001 (ip), vehicle: carboxymethylcellulose (CMC)) was 3 of 6 and the survivor count (dose: 1000.0 mg/kg/injection, schedule: Q01DX001 (ip), vehicle: carboxymethylcellulose (CMC)) was 0 of 6.

`CCCCC(=O)N/N=C/c1ccc(Cl)cc1Cl` was tested, and the survivor count [4] was 1 of 6 and the survivor count [5] was 0 of 6.

With `O=C1OC(c2ccc([N+](=O)[O-])cc2)=N/C1=C\c1ccc2c(c1)OCO2` the survivor count (dose: 200.0 mg/kg/injection, schedule: Q04DX002 (ip), vehicle: saline with Tween-80) was 3 of 3.

`O=C(NS(=O)(=O)c1ccc(Cl)cc1)c1ccccc1` was tested, and the survivor count [3] was 6 of 6 and the survivor count [2] was 0 of 6.

`O=c1[nH]c(=O)n(C2SC(CO)C(O)C2O)cc1F` (centres undefined) was tested, and the survivor count (dose: 25.0 mg/kg/injection, schedule: Q04DX003 (ip), vehicle: saline) was 6 of 6.
